Protein sequences, listed by entry. Tags and fused reporters are not part of them.
UniProt Q02224: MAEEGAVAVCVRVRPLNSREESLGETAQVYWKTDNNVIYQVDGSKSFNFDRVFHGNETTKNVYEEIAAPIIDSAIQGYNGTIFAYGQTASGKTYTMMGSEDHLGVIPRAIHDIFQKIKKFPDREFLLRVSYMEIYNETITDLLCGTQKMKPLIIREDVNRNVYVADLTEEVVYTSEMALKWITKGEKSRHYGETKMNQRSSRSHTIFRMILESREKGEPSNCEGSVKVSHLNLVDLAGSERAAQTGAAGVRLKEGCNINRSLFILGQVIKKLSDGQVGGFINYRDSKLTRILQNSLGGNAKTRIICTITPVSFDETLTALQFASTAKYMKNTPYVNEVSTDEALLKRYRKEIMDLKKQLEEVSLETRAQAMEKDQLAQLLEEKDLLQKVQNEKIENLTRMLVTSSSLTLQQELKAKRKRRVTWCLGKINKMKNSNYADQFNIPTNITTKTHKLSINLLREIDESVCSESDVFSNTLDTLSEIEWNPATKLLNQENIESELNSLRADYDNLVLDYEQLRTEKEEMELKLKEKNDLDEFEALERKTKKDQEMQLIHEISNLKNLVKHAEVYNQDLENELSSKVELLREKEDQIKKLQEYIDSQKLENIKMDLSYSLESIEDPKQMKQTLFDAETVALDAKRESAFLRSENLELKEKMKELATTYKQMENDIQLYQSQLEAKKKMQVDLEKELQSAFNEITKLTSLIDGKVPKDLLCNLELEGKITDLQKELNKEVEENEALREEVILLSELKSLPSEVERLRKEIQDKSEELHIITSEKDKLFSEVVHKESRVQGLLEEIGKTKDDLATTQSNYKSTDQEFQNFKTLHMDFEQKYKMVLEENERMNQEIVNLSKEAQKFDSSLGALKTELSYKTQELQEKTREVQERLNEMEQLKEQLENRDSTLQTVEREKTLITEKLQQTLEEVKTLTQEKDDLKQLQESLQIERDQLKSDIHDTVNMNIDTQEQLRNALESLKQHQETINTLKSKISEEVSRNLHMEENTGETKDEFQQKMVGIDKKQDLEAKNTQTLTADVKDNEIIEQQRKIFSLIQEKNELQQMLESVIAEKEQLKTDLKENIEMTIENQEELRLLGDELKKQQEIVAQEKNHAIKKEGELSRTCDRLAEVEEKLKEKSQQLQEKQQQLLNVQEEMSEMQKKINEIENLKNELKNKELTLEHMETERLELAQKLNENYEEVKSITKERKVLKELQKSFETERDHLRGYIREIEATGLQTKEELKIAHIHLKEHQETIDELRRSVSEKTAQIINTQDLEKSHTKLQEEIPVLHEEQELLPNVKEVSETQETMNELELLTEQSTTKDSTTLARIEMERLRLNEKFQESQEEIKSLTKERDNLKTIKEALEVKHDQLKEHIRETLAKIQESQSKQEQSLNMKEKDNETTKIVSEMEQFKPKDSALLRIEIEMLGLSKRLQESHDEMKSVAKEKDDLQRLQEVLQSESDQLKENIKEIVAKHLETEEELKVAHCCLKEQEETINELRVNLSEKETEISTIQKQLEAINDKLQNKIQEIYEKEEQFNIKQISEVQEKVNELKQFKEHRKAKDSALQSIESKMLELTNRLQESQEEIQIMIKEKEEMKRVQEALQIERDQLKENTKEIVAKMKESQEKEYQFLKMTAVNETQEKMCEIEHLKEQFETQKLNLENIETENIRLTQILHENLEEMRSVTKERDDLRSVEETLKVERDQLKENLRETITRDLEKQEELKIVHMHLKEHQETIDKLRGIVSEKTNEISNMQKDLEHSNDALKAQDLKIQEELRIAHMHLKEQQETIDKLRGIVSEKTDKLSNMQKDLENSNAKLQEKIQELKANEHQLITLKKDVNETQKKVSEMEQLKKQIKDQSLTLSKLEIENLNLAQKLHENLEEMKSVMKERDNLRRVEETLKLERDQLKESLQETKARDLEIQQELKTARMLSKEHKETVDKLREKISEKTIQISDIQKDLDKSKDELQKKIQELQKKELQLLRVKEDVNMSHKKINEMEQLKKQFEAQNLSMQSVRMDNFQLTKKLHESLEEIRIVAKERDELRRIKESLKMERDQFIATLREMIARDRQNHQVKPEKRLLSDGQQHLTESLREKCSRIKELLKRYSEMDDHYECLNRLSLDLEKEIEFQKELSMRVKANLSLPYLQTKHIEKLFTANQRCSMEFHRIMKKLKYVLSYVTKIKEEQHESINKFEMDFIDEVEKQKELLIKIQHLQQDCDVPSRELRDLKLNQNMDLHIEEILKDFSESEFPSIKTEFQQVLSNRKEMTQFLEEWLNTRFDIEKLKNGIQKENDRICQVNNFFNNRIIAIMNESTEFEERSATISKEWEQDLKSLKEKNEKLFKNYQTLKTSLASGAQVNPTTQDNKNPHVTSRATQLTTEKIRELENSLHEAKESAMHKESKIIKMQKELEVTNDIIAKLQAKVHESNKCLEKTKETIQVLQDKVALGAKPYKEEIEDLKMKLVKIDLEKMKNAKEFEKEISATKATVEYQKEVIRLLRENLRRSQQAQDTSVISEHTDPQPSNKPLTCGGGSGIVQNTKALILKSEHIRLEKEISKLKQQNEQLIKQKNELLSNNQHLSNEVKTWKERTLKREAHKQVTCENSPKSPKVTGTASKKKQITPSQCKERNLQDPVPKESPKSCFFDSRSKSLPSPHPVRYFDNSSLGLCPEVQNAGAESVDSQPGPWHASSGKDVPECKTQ
UniProt Q9NQS7: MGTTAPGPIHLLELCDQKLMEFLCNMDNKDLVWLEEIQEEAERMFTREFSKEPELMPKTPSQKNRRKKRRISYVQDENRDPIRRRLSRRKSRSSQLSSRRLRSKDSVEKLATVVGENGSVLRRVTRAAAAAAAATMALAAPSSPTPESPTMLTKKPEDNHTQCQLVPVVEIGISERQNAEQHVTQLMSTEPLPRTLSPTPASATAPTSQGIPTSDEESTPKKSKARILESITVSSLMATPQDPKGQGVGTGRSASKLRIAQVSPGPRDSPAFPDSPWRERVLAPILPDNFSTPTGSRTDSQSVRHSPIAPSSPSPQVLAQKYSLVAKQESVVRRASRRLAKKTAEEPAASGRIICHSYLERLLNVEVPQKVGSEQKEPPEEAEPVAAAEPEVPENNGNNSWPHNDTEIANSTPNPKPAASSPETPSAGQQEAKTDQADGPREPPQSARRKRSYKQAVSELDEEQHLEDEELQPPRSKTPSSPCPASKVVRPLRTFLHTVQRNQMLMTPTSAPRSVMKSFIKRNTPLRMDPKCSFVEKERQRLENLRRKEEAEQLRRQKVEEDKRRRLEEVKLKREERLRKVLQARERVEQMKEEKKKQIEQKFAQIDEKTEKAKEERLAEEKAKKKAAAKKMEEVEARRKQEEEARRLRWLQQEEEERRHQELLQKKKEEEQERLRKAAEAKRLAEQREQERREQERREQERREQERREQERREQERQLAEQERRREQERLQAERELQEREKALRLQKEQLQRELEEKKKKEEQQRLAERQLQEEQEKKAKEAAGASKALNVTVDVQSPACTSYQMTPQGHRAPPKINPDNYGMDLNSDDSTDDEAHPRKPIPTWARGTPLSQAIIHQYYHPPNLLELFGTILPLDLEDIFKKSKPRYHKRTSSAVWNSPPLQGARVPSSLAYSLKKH
UniProt P54132: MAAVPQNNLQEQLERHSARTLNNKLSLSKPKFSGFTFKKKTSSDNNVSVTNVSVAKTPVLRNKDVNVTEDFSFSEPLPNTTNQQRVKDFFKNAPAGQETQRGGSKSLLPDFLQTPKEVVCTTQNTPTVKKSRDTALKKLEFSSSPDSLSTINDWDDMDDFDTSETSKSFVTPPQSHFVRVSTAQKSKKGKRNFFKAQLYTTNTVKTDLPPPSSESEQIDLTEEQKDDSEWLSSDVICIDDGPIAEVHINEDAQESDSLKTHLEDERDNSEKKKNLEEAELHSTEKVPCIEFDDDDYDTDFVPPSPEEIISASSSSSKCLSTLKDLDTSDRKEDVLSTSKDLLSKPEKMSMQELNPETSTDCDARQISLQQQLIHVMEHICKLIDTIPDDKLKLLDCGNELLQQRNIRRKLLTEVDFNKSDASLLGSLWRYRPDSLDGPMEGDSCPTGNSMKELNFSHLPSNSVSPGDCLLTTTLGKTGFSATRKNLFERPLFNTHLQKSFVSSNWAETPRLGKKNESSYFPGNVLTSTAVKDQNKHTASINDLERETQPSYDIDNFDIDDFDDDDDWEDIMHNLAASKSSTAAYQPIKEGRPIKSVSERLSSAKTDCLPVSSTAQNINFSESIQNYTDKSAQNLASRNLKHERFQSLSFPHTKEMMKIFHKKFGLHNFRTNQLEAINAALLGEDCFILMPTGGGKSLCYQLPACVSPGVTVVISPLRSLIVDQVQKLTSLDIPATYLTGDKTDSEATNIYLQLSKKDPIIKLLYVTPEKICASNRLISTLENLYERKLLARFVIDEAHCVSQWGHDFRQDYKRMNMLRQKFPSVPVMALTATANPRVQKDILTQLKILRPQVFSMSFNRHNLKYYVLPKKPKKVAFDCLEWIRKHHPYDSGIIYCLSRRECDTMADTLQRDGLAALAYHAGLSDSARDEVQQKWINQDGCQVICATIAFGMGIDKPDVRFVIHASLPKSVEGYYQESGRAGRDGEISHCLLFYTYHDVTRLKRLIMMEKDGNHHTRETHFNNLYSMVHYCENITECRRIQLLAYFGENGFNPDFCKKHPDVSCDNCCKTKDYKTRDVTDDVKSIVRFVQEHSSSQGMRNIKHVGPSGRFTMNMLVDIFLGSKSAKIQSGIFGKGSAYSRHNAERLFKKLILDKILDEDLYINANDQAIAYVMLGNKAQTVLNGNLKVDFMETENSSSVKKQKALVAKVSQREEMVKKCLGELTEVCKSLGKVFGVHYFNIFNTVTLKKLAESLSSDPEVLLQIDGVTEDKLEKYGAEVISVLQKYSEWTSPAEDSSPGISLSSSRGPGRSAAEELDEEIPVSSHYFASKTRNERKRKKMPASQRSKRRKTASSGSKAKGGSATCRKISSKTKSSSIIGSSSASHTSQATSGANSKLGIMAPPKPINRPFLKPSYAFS
UniProt Q96GD4: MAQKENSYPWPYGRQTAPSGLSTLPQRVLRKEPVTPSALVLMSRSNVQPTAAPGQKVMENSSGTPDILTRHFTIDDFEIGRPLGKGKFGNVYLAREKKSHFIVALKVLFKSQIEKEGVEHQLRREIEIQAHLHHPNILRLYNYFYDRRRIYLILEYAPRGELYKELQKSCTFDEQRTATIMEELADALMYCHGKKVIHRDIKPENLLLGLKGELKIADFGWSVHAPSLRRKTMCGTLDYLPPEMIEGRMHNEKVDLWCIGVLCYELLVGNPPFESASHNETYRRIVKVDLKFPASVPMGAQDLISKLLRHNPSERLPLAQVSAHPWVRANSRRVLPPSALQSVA

According to PMC11914695:

T1: FLAG-APEX2-TRF1 (human), P54274
T1 chain: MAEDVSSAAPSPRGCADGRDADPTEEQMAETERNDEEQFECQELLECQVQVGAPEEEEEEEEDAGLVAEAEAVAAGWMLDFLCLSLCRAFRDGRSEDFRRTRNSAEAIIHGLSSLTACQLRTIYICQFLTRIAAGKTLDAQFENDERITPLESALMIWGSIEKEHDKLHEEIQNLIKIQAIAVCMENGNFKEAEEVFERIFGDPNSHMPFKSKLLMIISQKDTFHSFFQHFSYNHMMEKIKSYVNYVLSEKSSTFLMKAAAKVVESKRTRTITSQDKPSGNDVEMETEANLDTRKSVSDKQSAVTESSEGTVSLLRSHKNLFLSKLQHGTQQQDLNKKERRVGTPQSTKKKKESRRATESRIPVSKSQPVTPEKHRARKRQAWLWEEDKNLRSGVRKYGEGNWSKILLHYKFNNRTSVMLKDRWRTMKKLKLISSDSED


molecular target: FLAG-APEX2-TRF1 (human) (UniProt P54274); test: proximity labelling; FLAG-APEX2-TRF1 in HeLa, G1/S thymidine block and release into 150 ng/mL nocodazole for 12, 14 or 16 h; APEX2 activated 60 s with biotin-phenol and H2O2; streptavidin pull-down, LC-MS/MS; compared with FLAG-APEX2 at the same times; details: not given

binding	Molecule
binds	Borealin (protein, UniProt Q53HL2 1-280) MAPRKGSSRVAKTNSLRRRKLASFLKDFDREVEIRIKQIESDRQNLLKEVDNLYNIEILRLPKALREMNWLDYFALGGNKQALEEAATADLDITEINKLTAEAIQTPLKSAKTRKVIQVDEMIVEEEEEEENERKNLQTARVKRCPPSKKRTQSIQGKGKGKRSSRANTVTPAVGRLEVSMVKPTPGLTPRFDSRVFKTPGLRTPAAGERIYNISGNGSPLADSKEIFLTVPVGGGESLRLLASDLQRHSIAQLDPEALGNIKKLSNRLAQICSSIRTHK
binds	SGOL2 (protein, UniProt Q562F6 1-1265) MECPVMETGSLFTSGIKRHLKDKRISKTTKLNVSLASKIKTKILNNSSIFKISLKHNNRALAQALSREKENSRRITTEKMLLQKEVEKLNFENTFLRLKLNNLNKKLIDIEALMNNNLITAIEMSSLSEFHQSSFLLSASKKKRISKQCKLMRLPFARVPLTSNDDEDEDKEKMQCDNNIKSKTLPDIPSSGSTTQPLSTQDNSEVLFLKENNQNVYGLDDSEHISSIVDVPPRESHSHSDQSSKTSLMSEMRNAQSIGRRWEKPSPSNVTERKKRGSSWESNNLSADTPCATVLDKQHISSPELNCNNEINGHTNETNTEMQRNKQDLPGLSSESAREPNAECMNQIEDNDDFQLQKTVYDADMDLTASEVSKIVTVSTGIKKKSNKKTNEHGMKTFRKVKDSSSEKKRERSKRQFKNSSDVDIGEKIENRTERSDVLDGKRGAEDPGFIFNNEQLAQMNEQLAQVNELKKMTLQTGFEQGDRENVLCNKKEKRITNEQEETYSLSQSSGKFHQESKFDKGQNSLTCNKSKASRQTFVIHKLEKDNLLPNQKDKVTIYENLDVTNEFHTANLSTKDNGNLCDYGTHNILDLKKYVTDIQPSEQNESNINKLRKKVNRKTEIISGMNHMYEDNDKDVVHGLKKGNFFFKTQEDKEPISENIEVSKELQIPALSTRDNENQCDYRTQNVLGLQKQITNMYPVQQNESKVNKKLRQKVNRKTEIISEVNHLDNDKSIEYTVKSHSLFLTQKDKEIIPGNLEDPSEFETPALSTKDSGNLYDSEIQNVLGVKHGHDMQPACQNDSKIGKKPRLNVCQKSEIIPETNQIYENDNKGVHDLEKDNFFSLTPKDKETISENLQVTNEFQTVDLLIKDNGNLCDYDTQNILELKKYVTDRKSAEQNESKINKLRNKVNWKTEIISEMNQIYEDNDKDAHVQESYTKDLDFKVNKSKQKLECQDIINKHYMEVNSNEKESCDQILDSYKVVKKRKKESSCKAKNILTKAKNKLASQLTESSQTSISLESDLKHITSEADSDPGNPVELCKTQKQSTTTLNKKDLPFVEEIKEGECQVKKVNKMTSKSKKRKTSIDPSPESHEVMERILDSVQGKSTVSEQADKENNLENEKMVKNKPDFYTKAFRSLSEIHSPNIQDSSFDSVREGLVPLSVSSGKNVIIKENFALECSPAFQVSDDEHEKMNKMKFKVNRRTQKSGIGDRPLQDLSNTSFVSNNTAESENKSEDLSSERTSRRRRCTPFYFKEPSLRDKMRR
binds	TIN2 (protein, UniProt Q9BSI4 1-451) MATPLVAGPAALRFAAAASWQVVRGRCVEHFPRVLEFLRSLRAVAPGLVRYRHHERLCMGLKAKVVVELILQGRPWAQVLKALNHHFPESGPIVRDPKATKQDLRKILEAQETFYQQVKQLSEAPVDLASKLQELEQEYGEPFLAAMEKLLFEYLCQLEKALPTPQAQQLQDVLSWMQPGVSITSSLAWRQYGVDMGWLLPECSVTDSVNLAEPMEQNPPQQQRLALHNPLPKAKPGTHLPQGPSSRTHPEPLAGRHFNLAPLGRRRVQSQWASTRGGHKERPTVMLFPFRNLGSPTQVISKPESKEEHAIYTADLAMGTRAASTGKSKSPCQTLGGRALKENPVDLPATEQKENCLDCYMDPLRLSLLPPRARKPVCPPSLCSSVITIGDLVLDSDEEENGQGEGKESLENYQKTKFDTLIPTLCEYLPPSGHGAIPVSSCDCRDSSRPL
binds	SPDL1 (protein, UniProt Q96EA4 1-605) MEADIITNLRCRLKEAEEERLKAAQYGLQLVESQNELQNQLDKCRNEMMTMTESYEQEKYTLQREVELKSRMLESLSCECEAIKQQQKMHLEKLEEQLSRSHGQEVNELKTKIEKLKVELDEARLSEKQLKHQVDHQKELLSCKSEELRVMSERVQESMSSEMLALQIELTEMESMKTTLKEEVNELQYRQEQLELLITNLMRQVDRLKEEKEEREKEAVSYYNALEKARVANQDLQVQLDQALQQALDPNSKGNSLFAEVEDRRAAMERQLISMKVKYQSLKKQNVFNREQMQRMKLQIATLLQMKGSQTEFEQQERLLAMLEQKNGEIKHLLGEIRNLEKFKNLYDSMESKPSVDSGTLEDNTYYTDLLQMKLDNLNKEIESTKGELSIQRMKALFESQRALDIERKLFANERCLQLSESENMKLRAKLDELKLKYEPEETVEVPVLKKRREVLPVDITTAKDACVNNSALGGEVYRLPPQKEETQSCPNSLEDNNLQLEKSVSIYTPVVSLSPHKNLPVDMQLKKEKKCVKLIGVPADAEALSERSGNTPNSPRLAAESKLQTEVKEGKETSSKLEKETCKKLHPILYVSSKSTPETQCPQQ
binds	DSN1 (protein, UniProt Q9H410 1-356) MTSVTRSEIIDEKGPVMSKTHDHQLESSLSPVEVFAKTSASLEMNQGVSEERIHLGSSPKKGGNCDLSHQERLQSKSLHLSPQEQSASYQDRRQSWRRASMKETNRRKSLHPIHQGITELSRSISVDLAESKRLGCLLLSSFQFSIQKLEPFLRDTKGFSLESFRAKASSLSEELKHFADGLETDGTLQKCFEDSNGKASDFSLEASVAEMKEYITKFSLERQTWDQLLLHYQQEAKEILSRGSTEAKITEVKVEPMTYLGSSQNEVLNTKPDYQKILQNQSKVFDCMELVMDELQGSVKQLQAFMDESTQCFQKVSVQLGKRSMQQLDPSPARKLLKLQLQNPPAIHGSGSGSCQ

molecular target: FLAG-APEX2-TRF1 (human) (UniProt P54274); test: as above; details: not given; remark: another data set of the same source

binding	Molecule
binds	CASC5 (from UniProt Q8NG31 1-2342)
binds	CENPE (from UniProt Q02224 1-2701)
binds	INCENP (from UniProt Q9NQS7 1-918)
binds	BLM (from UniProt P54132 1-1417) (enzyme)
binds	Aurora Kinase B (from UniProt Q96GD4 1-344) (enzyme)

Molecular target: T1, FLAG-APEX2-TRF1 (human), P54274
Test: as above
Details: remark: other sources report otherwise

binding	Molecule
binds	TRF2 (endogenous), Q15554 1-542 (protein) MAAGAGTAGPASGPGVVRDPAASQPRKRPGREGGEGARRSDTMAGGGGSSDGSGRAAGRRASRSSGRARRGRHEPGLGGPAERGAGEARLEEAVNRWVLKFYFHEALRAFRGSRYGDFRQIRDIMQALLVRPLGKEHTVSRLLRVMQCLSRIEEGENLDCSFDMEAELTPLESAINVLEMIKTEFTLTEAVVESSRKLVKEAAVIICIKNKEFEKASKILKKHMSKDPTTQKLRNDLLNIIREKNLAHPVIQNFSYETFQQKMLRFLESHLDDAEPYLLTMAKKALKSESAASSTGKEDKQPAPGPVEKPPREPARQLRNPPTTIGMMTLKAAFKTLSGAQDSEAAFAKLDQKDLVLPTQALPASPALKNKRPRKDENESSAPADGEGGSELQPKNKRMTISRLVLEEDSQSTEPSAGLNSSQEAASAPPSKPTVLNQPLPGEKNPKVPKGKWNSSNGVEEKETWVEEDELFQVQAAPDEDSTTNITKKQKWTVEESEWVKAGVQKYGEGNWAAISKNYPFVNRTAVMIKDRWRTMKRLGMN

These are yes or no findings as the source states them, for the method shown. Binding seen in cells or lysates may run through a third protein. Here binding means that the protein was enriched with, or labelled near, the bait; the list need not be complete. For some assays here: Tags and fused reporters may be left off the sequences shown.
